# Measured values: PMC10578308 (ACS Medicinal Chemistry Letters, 2023)
# Tests used:
# [1] = general procedure: Fmoc solid-phase peptide synthesis; (2-Cl)Trt chloride resin; HATU/DIEA; EDCI·HCl/HOAt/DIEA for macrocyclisation; settings: whole synthesis; for isolated yield: from resin
# [2] = general procedure: Fmoc solid-phase peptide synthesis; peptidyl resin S6 (2-Cl-Trt); HATU/DIEA; EDCI·HCl/HOAt/DIEA for macrocyclisation; settings: whole synthesis, scale 0.0500 mmol
Substance,isolated yield ([1]; scale 0.100 mmol) [%],isolated mass ([1]; scale 0.100 mmol) [mg],also measured
"PEPTIDE1{[Me2Val].[D-Hva].[MeAla].[MeLeu].[MeDab].[MeAla].[MeIle].A.[MeLeu].[Tyr(Me)].[D-MeAla]}$PEPTIDE1,PEPTIDE1,5:R3-11:R2$$$V2.0",8,10.4,–
"PEPTIDE1{[Me2Val].[D-Hva].[MeSer(Me)].[MeLeu].[MeDab].[MeSer(Me)].[MeIle].A.[MeLeu].[Bph].[D-MeAla]}$PEPTIDE1,PEPTIDE1,5:R3-11:R2$$$V2.0",7,10.5,–
"PEPTIDE1{[Me2Val].[D-Hva].[MeSer(Me)].[MeLeu].[MeDab].[MeSer(Me)].[MeIle].A.[MeLeu].[Tyr(Me)].[D-MeAla]}$PEPTIDE1,PEPTIDE1,5:R3-11:R2$$$V2.0",11,15.0,–
"PEPTIDE1{[Me2Val].[D-Hva].[MeAla].[MeLeu].[MeLys(Me)-3S,6R-Me2-4E-ene].[MeAla].[MeIle].A.[MeLeu].[Tyr(Me)]}$PEPTIDE1,PEPTIDE1,5:R3-10:R2$$$V2.0",–,–,isolated yield ([1]; scale 0.050 mmol): 1%; isolated mass ([1]; scale 0.050 mmol): 1.2 mg
"PEPTIDE1{[Me2Val].[D-Hva].[MeAla].[MeLeu].[MeDap].[MeAla].[MeIle].A.[MeLeu].[Tyr(Me)].[D-MeAla]}$PEPTIDE1,PEPTIDE1,5:R3-11:R2$$$V2.0",5,7.0,–
"PEPTIDE1{[Me2Val].[D-Hva].[MeAla].[MeLeu].[MeLys(Me)-3S,6R-Me2].[MeAla].[MeIle].A.[MeLeu].[Tyr(Me)]}$PEPTIDE1,PEPTIDE1,5:R3-10:R2$$$V2.0",–,–,isolated yield ([1]; scale 0.0500 mmol): 3%; isolated mass [2]: 3.7 mg
"PEPTIDE1{[Me2Val].[D-Hva].[MeAla].[MeLeu].[MeDap(Me)].[MeAla].[MeIle].A.[MeLeu].[Tyr(Me)].[D-MeAla]}$PEPTIDE1,PEPTIDE1,5:R3-11:R2$$$V2.0",2,3.1,–

# Some peptides are written in HELM: one residue between dots, names in brackets for other building blocks, links after the first $.
